For 64 compounds, AC50 results are on record in PubChem BioAssay AID493014 (National Center for Advancing Translational Sciences (NCATS), 2011).

Values joined by “and” are separate entries in the source; they are usually repeats but may differ in a detail not shown here. Equal values may be shown once. The list shows a part of the results. These are further read-outs of the screen, such as a control signal, another cell line or another target. No call is given for them. Compounds called inactive in the main read-out are mostly missing here. Words in brackets tell the shape of the fitted curve; partial curves, single points and poor fits give uncertain potencies.

This test in a line: qHTS Assay to Find Inhibitors of Chronic Active B-Cell Receptor Signaling. Conditions: ABC-DLBCL IkBa-CBG/CBR reporter, luminescence ratio (green luciferase fused to IkBa over red control in TMD8 lymphoma cells), 4 h. In short, it runs like this: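 TMD8 human ABC-DLBCL cells with doxycycline-inducible IκBα–green luciferase fusion and unfused red luciferase, in 0.5% FBS medium; compounds up to 46 uM, 4 h at 37C. Green/red luminescence ratio, filter-overlap corrected, fitted to concentration-response curves.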
Background: In qHTS, concentration-response curves come from the screen itself.

[1] abbreviates: measured here: CBR red luminescence, cell number.
[2] abbreviates: measured here: IkBa-CBG green luminescence.

Regarding `CCC(C)(C)NC(=O)C(c1cccn1C)N(C(=O)Cn1nnc2ccccc21)c1ccc(OC)cc1OC` (stereo not drawn), under setting [1], the concentration at half-maximal activity (AC50) (usually the concentration at which the activity in the assay is half-maximal) was 29.1 µM [falling, single point].

Consider `Cc1coc2c1c(C)cc1oc(=O)c(CC(=O)NCC(=O)N[C@H](C(=O)O)C(C)C)c(C)c12`, for which, under setting [1], the AC50 was 35.5 µM [rising, single point].

For `CCc1c(C)nc2ncnn2c1NCCc1ccc(Cl)cc1`, the concentration at half-maximal activity (AC50) under setting [1] is 17.8 µM [falling, partial curve].

`COc1ccc(NC(=S)N2CCCC(CO)C2)c(OC)c1` (stereo not drawn): under setting [1], the AC50 is 20.6 µM [rising, partial curve, poor fit].

For `COc1ccc(-c2cn3cc(C(=O)NN)ccc3n2)cc1`, under setting [1], the AC50 is 3.98 µM [falling, partial curve].

As to `CCCc1ccc(C(=O)NC(=O)c2ccccc2O)cc1`, the AC50 under setting [1] is 2.24 µM [falling, full curve, poor fit].

For the compound `CCCNC(=O)C1CC(c2cccc(F)c2)=NO1` (stereo not drawn), the half-maximal activity concentration (AC50) under setting [1] is 14.1 µM [rising, single point].

Consider `COc1cc(C(=O)Nc2nnc(C(C)(C)C)s2)c([N+](=O)[O-])cc1OC`, for which the AC50 under setting [1] is 2.31 µM [rising, partial curve].

As to `O=C(COC(=O)COc1ccccc1)NCCC1=CCCCC1`, the AC50 under setting [1] is 0.731 µM [rising, full curve, poor fit].

`Cc1ccc(C(=O)/C=C/c2cn(CN3CCN(C)CC3)c3ccccc23)cc1`: the AC50 under setting [1] was 32.6 µM [falling, single point].

As to `O=C(NCCN1CCCC1)c1ccc2c(c1)N(Cc1ccc(F)cc1)C(=O)c1ccccc1S2=O` (stereo not drawn), the AC50 under setting [1] was 23.1 µM [falling, partial curve, poor fit].

Turning to `COc1ccc(CCN2C(=O)CC(NNC(=O)c3ccccc3Br)C2=O)cc1` (stereo not drawn), the AC50 under setting [1] was 3.66 µM [falling, full curve, poor fit].

Regarding `O=C(Nc1cccnc1)c1sc(Nc2ccccc2)nc1-c1ccccc1`, the AC50 by setting is: under setting [1], 5.17 µM [falling, full curve, poor fit]; under setting [2], 20.6 µM [rising, partial curve, poor fit].

Turning to `Cc1cc(C)n(-c2nc(C)nc(NCc3ccccc3)n2)n1`, the AC50 under setting [1] is 0.731 µM [rising, full curve, poor fit].

In the case of `Cc1c(NC(=O)C(C)Sc2n[nH]c(N)n2)c(=O)n(-c2ccccc2)n1C` (stereo not drawn), the AC50 under setting [1] was 3.26 µM [falling, full curve, poor fit].

Regarding `Cc1cc2occ(CC(=O)N(C)CC(=O)Nc3cccc(F)c3)c2cc1C`, the AC50 under setting [1] was 35.5 µM [falling, single point].

Consider `Cc1cccc(C)c1NC(=S)N/N=C/c1ccc(OCCC(C)C)cc1`, for which, under setting [1], the AC50 is 20.6 µM [rising, partial curve, poor fit].

With `CCc1cc(=O)[nH]c(SCCc2ccccc2)n1`, under setting [1], the AC50 was 7.94 µM [falling, partial curve].

As for `O=C1CSC(c2cn(-c3ccccc3)nc2-c2cccs2)N1CC1CCCO1` (stereo not drawn), the concentration at half-maximal activity (AC50) under setting [1] was 25.9 µM [falling, single point].

In the case of `Cn1ccnc1/C(=N\NC(=O)c1ccccc1)c1cccc([N+](=O)[O-])c1`, the AC50 under setting [1] was 3.98 µM [rising, full curve, poor fit].

With `O=C(O)Cc1ccc(NC(=O)Nc2cccc3ccccc23)cc1`, the AC50 under setting [1] was 22.4 µM [falling, single point].

Regarding `Cc1ccc(-n2nc(C)c(NC(=O)CCl)c2C)cc1C`, under setting [1], the AC50 was 18.4 µM [falling, partial curve].

Turning to `O=C1/C(=C/c2ccccc2Cl)SC(=S)N1CCC(=O)N1CCCCC1CCO` (stereo not drawn), the AC50 under setting [1] was 35.5 µM [falling, single point].

In the case of `O=C(CN1C(=O)NC2(CCCCCC2)C1=O)NCCc1ccccc1`, the AC50 under setting [1] is 11.6 µM [rising, partial curve, poor fit].

In the case of `Cc1ccc(NC(=O)Nc2ccc3c(c2)OCO3)cc1F`, the AC50 under setting [1] was 0.794 µM [rising, full curve, poor fit].

On to `S=C(Nc1ccc(Cl)cc1)N1CCCCC1`, for which, under setting [1], the AC50 is 8.2 µM [rising, partial curve, poor fit].

Take `Cc1ccccc1NC(=O)c1ccc2c(c1)N(C)CCS2`: the concentration at half-maximal activity (AC50) under setting [1] is 5.01 µM [falling, partial curve].

Take `Cc1ccc(OCCCSc2ncccn2)cc1C`: the AC50 under setting [1] was 23.1 µM [rising, partial curve].

Turning to `C=CCNC(=S)NNC(=O)C(CCCC)CC(C)O` (stereo not drawn), the AC50 under setting [1] is 20.6 µM [rising, partial curve, poor fit].

For the compound `O=C(CCc1ccccc1)N(Cc1cccnc1)c1nc2c(F)cccc2s1`, the AC50 is, setting by setting: under setting [1], 35.5 µM [falling, single point]; under setting [2], 14.1 µM [rising, partial curve, poor fit].

Regarding `O=C(Nc1ccc(Cl)c(Cl)c1)OCc1cccnc1`, the AC50 under setting [1] was 0.291 µM [rising, full curve].

As to `O=C(NCCc1ccc(Cl)cc1)C1CCCN(S(=O)(=O)c2cnc[nH]2)C1` (stereo not drawn), the AC50 under setting [1] was 16.4 µM [falling, partial curve].

Consider `Cc1ccc(NC(=O)C(NC2CCCC2)c2ccccc2)cc1Cl` (stereo not drawn), for which the AC50 under setting [1] was 35.5 µM [falling, single point].

As to `C(=N\n1cnnc1)/c1ccc(OCc2ccccc2)cc1`, under setting [1], the AC50 is 3.55 µM [rising, full curve, poor fit].

As to `Cc1nc(SCC(=O)NCc2ccc3c(c2)OCO3)c(C#N)c2c1CCCC2`, the AC50 under setting [1] was 11.2 µM [falling, partial curve, poor fit].

For the compound `Cc1ccc(NC(=O)N2CCC(c3ccccc3)C2)cc1C` (stereo not drawn), under setting [1], the AC50 was 10 µM [falling, partial curve] and 11.2 µM [falling, partial curve].

Take `Cc1csc(NC(=O)CSC2=NS(=O)(=O)c3cc(F)ccc3N2)n1`: the AC50 under setting [1] was 4.61 µM [falling, full curve].

With `N#CCCN(Cc1cccs1)C(=O)Nc1ccccc1`, the AC50 under setting [1] was 2.24 µM [rising, partial curve].

With `COc1ccc2sc(NCc3ccccc3)nc2c1`, under setting [1], the AC50 was 10 µM [falling, partial curve, poor fit].

With `O=C(c1ccccc1/S(=N/S(=O)(=O)c1ccccc1)N1CCOCC1)N1CCOCC1` (stereo not drawn), the AC50 under setting [1] is 0.461 µM [rising, full curve].

Consider `O=C(N/N=C/c1c(O)ccc2ccccc12)c1cccnc1`, for which the AC50 under setting [1] was 35.5 µM [falling, single point].

In the case of `N#Cc1c2ccc(OCC(=O)NCc3ccco3)cc2n2ccccc12`, the AC50 under setting [1] was 1.26 µM [rising, partial curve, poor fit].

For `COc1ccc(N2C(=O)C3C(c4ccc(OC)cc4O)NC(Cc4ccccc4)(C(=O)O)C3C2=O)cc1` (stereo not drawn), under setting [1], the AC50 was 35.5 µM [falling, single point].

On to `CCCC1CCc2c(sc(N)c2C(N)=O)C1` (stereo not drawn), for which the AC50 under setting [1] was 5.8 µM [rising, full curve, poor fit].

Take `COc1ccccc1OCc1ccc(C(=O)NN)o1`: the AC50 under setting [1] is 1.12 µM [falling, partial curve, poor fit].

For `COc1ccc(-c2c(C)nn(-c3ccccc3)c2N)cc1`, under setting [1], the AC50 is 3.66 µM [falling, full curve].

With `CCOC(=O)c1c(CN2CCN(CCO)CC2)n(C)c2cc(Br)c(OC)cc12`, the AC50 under setting [1] is 11.2 µM [falling, partial curve, poor fit].

Turning to `CC(Oc1ccc2oc(-c3ccccc3)c(C(=O)O)c2c1)C(=O)O` (stereo not drawn), the AC50 under setting [1] was 20.6 µM [rising, partial curve].

`O=c1cc(O)c(-c2ccc(Cl)cc2)c(Cl)[nH]1`: the AC50 under setting [1] is 1.12 µM [falling, partial curve, poor fit].

For `CCOC(=O)Cc1cc(=O)n2[nH]c(C)c(-c3ccccc3)c2n1`, under setting [1], the AC50 was 31.6 µM [falling, single point].

As to `COc1ccc(C(=O)N/C(=C\c2ccccc2)C(=O)NC(CCSC)C(=O)O)cc1` (stereo not drawn), under setting [1], the AC50 was 3.55 µM [falling, single point].

On to `Cc1ccc(-n2c(C)nnc2SCC(=O)N(C)c2c(N)n(Cc3ccccc3)c(=O)[nH]c2=O)cc1`, for which the AC50 by setting is: under setting [1], 8.2 µM [rising, partial curve]; under setting [2], 25.9 µM [falling, partial curve, poor fit].

With `O=C(CNC(=O)c1ccccc1Cl)N/N=C/c1ccc2c(c1)OCO2`, the AC50 under setting [1] was 7.08 µM [falling, partial curve, poor fit].

For `O=c1nc(N/N=C/C=C/c2ccccc2)cn[nH]1`, the AC50 under setting [1] is 0.891 µM [falling, full curve, poor fit].

On to `CC1CCN(C(=O)/C=C/c2ccc(C(C)(C)C)cc2)CC1`, for which the AC50 under setting [1] was 10.3 µM [rising, partial curve].

Turning to `COc1ccc(-n2c(SCC(=O)NC3CC3)nc3ccccc3c2=O)cc1OC`, the AC50 under setting [1] is 2.59 µM [rising, full curve, poor fit].

On to `O=C1N=C(N2CCN(c3ccccc3)CC2)S/C1=C\c1cn[nH]c1-c1ccccc1`, for which the AC50 under setting [1] is 20.6 µM [falling, partial curve].

With `CCc1ccccc1NC(=O)c1cc(-c2ccco2)on1`, the AC50 under setting [1] was 14.1 µM [falling, partial curve, poor fit].

For `Cc1ccc(N=CC2=C(O)CC(c3ccco3)CC2=O)cc1` (stereo not drawn), the AC50 under setting [1] is 31.6 µM [falling, single point].

In the case of `O=C(COc1ccccc1C(=O)c1cnn(-c2ccccc2)c1)Nc1ccccc1`, the AC50 under setting [1] is 13 µM [falling, partial curve].

On to `COC(=O)c1ccc(-c2ccc(/C=N/N3C(=O)C4C5C=CC(C6CC56)C4C3=O)o2)cc1` (stereo not drawn), for which the AC50 under setting [1] was 11.6 µM [falling, partial curve].

In the case of `CN(C)C(=O)c1ccc(NC(=O)COC(=O)C2(c3ccccc3)CCCC2)cc1`, the concentration at half-maximal activity (AC50) under setting [1] was 29.1 µM [falling, single point].

As for `CCN(CC)C(=O)CSC(=Nc1ccccc1F)NC#N`, the AC50 under setting [1] was 5.8 µM [falling, full curve, poor fit].

With `COc1cc2c(cc1O)CC[C@@H]1[C@@H]2CC[C@]2(C)[C@@H](O)CC[C@@H]12`, the AC50 under setting [1] was 12.6 µM [rising, single point] and the AC50 under setting [2] is 12.6 µM [falling, partial curve].
